Laboratory results published in article PMC7652414.
These are yes or no findings as the source states them, for the method shown. In cells and extracts the contact can be indirect. Binding can be weak; no strength is given. Where a sequence is shown, tags or fusion partners need not be part of it.

Columns and labels:
[1] = target: KAP-GFP-His (Chlamydomonas reinhardtii); assay: pull-down; FLA8-RFP/KAP-GFP-His or FLA10-MBP/KAP-GFP-His co-expressed in Sf9; lysis buffer 80 mM Pipes pH 6.9, 150 mM KCl, 1 mM MgCl2, 1 mM EGTA, 0.1 mM ATP, 0.1% Tween-20, 10 mM imidazole; pulled down by Ni beads; immunoblot
[2] = target: KAP-GFP-His (Chlamydomonas reinhardtii); assay: pull-down; three subunits co-expressed in Sf9, co-purified using MBP and Ni affinity columns consecutively; SDS-PAGE with Coomassie staining or immunoblotting

B1: FLA10-MBP (protein, UniProt P46869 1-786)
chain: MPPAGGGSESVKVVVRCRPLNGKEKADGRSRIVDMDVDAGQVKVRNPKADASEPPKAFTFDQVYDWNCQQRDVFDITARPLIDSCIEGYNGTIFAYGQTGTGKSHTMEGKDEPPELRGLIPNTFRYVFEIIARDSGTKEFLVRSSYLEIYNEEVRDLLGKDHSKKMELKESPDRGVYVKDLSQFVCKNYEEMNKVLLAGKDNRQVGATLMNQDSSRSHSIFTITIECIEKLESAAAQKPGAKKDDSNHVRVGKLNLVDLAGSERQDKTGATGDRLKEGIKINLSLTALGNVISALVDGKSGHIPYRDSKLTRLLQDSLGGNTKTVMVANIGPADWNYDETMSTLRYANRAKNIQNKPKINEDPKDAMLRQFQEEIKKLKEQLAARAAGGGGPITMPSGGGSPTQKIVERTEEVDPDIDAIKAQMRAELEAKMKSDISTEALDKAREEAEAAAKKQLQAIIDDQGKTEAQKKAARDALKKQAEEARAIAGAIEKEKQEKAVLESRIKEMEGKIVVGGVNMLEKVDELKQKSEDIKREAAIRKRQEEEAKRRLEELQAAQVDADAKFASLDEEINVKSRQLKKLFEKYQGKKGELADLQEQFQREREGMLEDYRILTQQIKLKNLIIACFIPPDYQDKIMQHCHWQDYDSSWNIDCIAYAGNAVRTNQELQAQEDKEHDAAAENERLKNCFFSYEQFEAAGAGSKQGGGGGGGGGGAARPGSSAGRAVGSAARRTGGKAGGKDITDIGSLRDSVNWGDDDDKKKGAIPKAKGLVKDTVDPRLRASKLK
Question: Which results are given for B1?
Answer: binding [1]: binds; binding [2]: binds
